The list shows a part of the results. The data scatter; read single values as rough.

Compound in the assay: ClCC(=O)N[C@@H]1CCCc2ccccc12
Put plainly: log2 mean competition ratio of IA-DTB cysteine labelling (DMSO/compound) (log2 ratio); higher = stronger cysteine engagement by compound. As to conditions: 50 µM; treatment time: 4 h; cell line lysate: HEK293T. On the procedure:
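IA-DTB competitive cysteine chemoproteomics in HEK293T RIPA lysate. Lysates were treated with compound 29 or 30 at 50 or 200 µM for 4 h, then IA-DTB (500 µM, 1 h), trypsin-digested, NeutrAvidin-enriched and analysed by diaPASEF. Competition ratio = intensity DMSO / intensity compound (n=4 treated, n=64 DMSO); binding: mean log2 CR ≥ 1 and p ≤ 0.05 plus QC filters. Target is the cysteine site.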
In the case of NKRF C386 (UniProt O15226), the “log2 mean competition ratio” value is 0.0355. Under NF1 C324 (UniProt P21359) stands -0.235. The figure for NOL6 C1034 (UniProt Q9H6R4) is -0.181; for NFKB2 C738 (UniProt Q00653) it is -0.179; for NIPBL C1971 (UniProt Q6KC79) it is 0.111. Under NCAPG C177 (UniProt Q9BPX3) stands -0.182; under NIT2 C44 (UniProt Q9NQR4), 0.099. As to NAT10 C658 (UniProt Q9H0A0), the “log2 mean competition ratio” value came to 0.212.

On to NCDN C22 (UniProt Q9UBB6), for which the “log2 mean competition ratio” value came out at 0.127. For NCKAP1 C556 (UniProt Q9Y2A7), the “log2 mean competition ratio” value is -0.247.

Take NFKB2 C83 (UniProt Q00653): the “log2 mean competition ratio” value was 0.105.

Turning to NDUFA11 C18 (UniProt Q86Y39), the “log2 mean competition ratio” value was -0.425.

As for NAXE C283 (UniProt Q8NCW5), the “log2 mean competition ratio” value came to 0.105. The figure for NFKB2 C57 (UniProt Q00653) is 0.177; for NDC1 C369 (UniProt Q9BTX1) it is 0.159. Turning to NME2 C145 (UniProt P22392), the “log2 mean competition ratio” value is -0.064. The figure for NAT10 C746 (UniProt Q9H0A0) is -0.325; for NF1 C904 (UniProt P21359) it is 0.373. The figure for NHSL1 C268 (UniProt Q5SYE7) is -0.0707; for NOP56 C211 (UniProt O00567) it is 0.245.

Consider NCK1 C139 (UniProt P16333), for which the “log2 mean competition ratio” value is -0.0115. Under NCOA3 C716 (UniProt Q9Y6Q9) stands -0.112; under NOPCHAP1 C13, 0.0736; under NEK7 C298 (UniProt Q8TDX7), -0.126.

As for NASP C84 (UniProt P49321), the “log2 mean competition ratio” value was found to be 0.0382. The figure for NCDN C491 (UniProt Q9UBB6) is -0.0868; for NEK9 C556 (UniProt Q8TD19) it is 0.089.

The record behind these values is the supplement of paper PMC11732987, “Enantioselective OTUD7B fragment discovery through chemoproteomics screening and high-throughput optimisation” (Communications Chemistry, 2025).
